Source: PubChem BioAssay AID686943 (Drosophila RNAi Screening Center, 2013)

Aim: 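Knockdowns that increase or decrease active ERK after insulin receptor stimulation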 (primary screen)
System: Drosophila S2R+ haemocyte-like cells expressing YFP-tagged ERK (Rolled)
Knock-down reagent: long dsRNA against Drosophila genes
Challenge: insulin stimulation versus unstimulated cells; dose and duration not given
Detection: 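Antibody staining for doubly phosphorylated ERK divided by ERK-YFP signal, as plate z-scores, in insulin-treated and untreated cells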
Scale: replicate 1, z-score of dpERK with insulin and replicate 2, z-score of dpERK with insulin: higher = more active ERK per ERK-YFP after insulin
In all, the deposit lists about 23,000 reagents; below is an unselected part of those that have a named target and a result. 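Extra replicates exist only for a retested subset of genes; insulin dose and duration not given; both raised and lowered dpERK matter.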 Not all columns of the deposit are shown. No sequences are given here. Not given: the amount of reagent, the time to read-out.

What is on record for CG14200?
replicate 1, z-score of dpERK with insulin: -3.78; replicate 2, z-score of dpERK with insulin: -1.59

How did the screen score THG?
replicate 1, z-score of dpERK with insulin: 1.15; replicate 2, z-score of dpERK with insulin: 0.35

What did the screen give for otu?
replicate 1, z-score of dpERK with insulin: 0.31; replicate 2, z-score of dpERK with insulin: -0.1

With CG12824, what does the deposit list?
replicate 1, z-score of dpERK with insulin: 0.66; replicate 2, z-score of dpERK with insulin: 0.8

What is on record for CG32006?
replicate 1, z-score of dpERK with insulin: 0.13; replicate 2, z-score of dpERK with insulin: 0.1

A run of entries of the results above:
CG14200 → replicate 1, z-score of dpERK with insulin: -3.78; replicate 2, z-score of dpERK with insulin: -1.59
THG → replicate 1, z-score of dpERK with insulin: 1.15; replicate 2, z-score of dpERK with insulin: 0.35

The listing continues.
What is on record for CG14330?
replicate 1, z-score of dpERK with insulin: 0.81; replicate 2, z-score of dpERK with insulin: 0.04

What is on record for CG4733?
replicate 1, z-score of dpERK with insulin: -0.4; replicate 2, z-score of dpERK with insulin: 1.01

For CG1024, what does the deposit list?
replicate 1, z-score of dpERK with insulin: -0.39; replicate 2, z-score of dpERK with insulin: -1.04

For CG14671, what was measured?
replicate 1, z-score of dpERK with insulin: 0.08; replicate 2, z-score of dpERK with insulin: -0.03

What is on record for Ubc4?
replicate 1, z-score of dpERK with insulin: 0.96; replicate 2, z-score of dpERK with insulin: -0.15

For NiPp1, how do the results read?
replicate 1, z-score of dpERK with insulin: 0.54; replicate 2, z-score of dpERK with insulin: 0.24

For NPF, how do the results read?
replicate 1, z-score of dpERK with insulin: 0.99; replicate 2, z-score of dpERK with insulin: -0.55
